# Assay results published in PubChem BioAssay AID540303 (National Center for Advancing Translational Sciences (NCATS), 2011).
# Hit rate of the full screen: of about 330,000 compounds, about 1,000 (0.3%) were called active. Inconclusive results, whose numbers are uncertain, are shown with a selection of clear calls. The call rests on the fitted dose curve; in most records, active means well fitted inhibition curve with a large enough effect; inconclusive means small, poorly fitted or top-dose-only effect; inactive means no such curve, though single readings can be large or run the other way; tested in mouse RAW 264.7 cells. Potencies beside an inconclusive call are fits to weak or partial responses and may not hold up.
# Assay: qHTS for Inhibitors of Cell Surface uPA Generation; further: nearly all actives have a fitted effect of over 55% in size
# Conditions: cell surface uPA generation assay; series mostly up to 38.3 µM
# Procedure, shortened: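 RAW 264.7, 4000 cells/well, o/n 37 C; cpd 1:5 dilution, up to 38.3 uM final; 24 h 37 C/5% CO2 with reagent; ATP-Lite lum. High ATP = LF entry blocked.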
# Potency means the concentration at half of the fitted maximal effect.
row,SMILES,Potency
1,CC(=O)N1CCN(c2ccc(NCc3ccc(-c4ccc(Br)cc4)o3)cc2)CC1,"inconclusive: 14.1 µM [inhibitor, partial curve, poor fit]"
2,COc1ccc(NC(=O)c2nc(S(=O)(=O)Cc3cccc(C)c3)ncc2Cl)c(OC)c1,"inconclusive: 1 µM [inhibitor, partial curve, poor fit]"
3,COCc1ccc(CN2CCCC(CO)(Cc3cccc(OC)c3)C2)o1 (configuration not stated),"inconclusive: 2.82 µM [inhibitor, single point]"
4,Cc1nc(SCc2nc3cc(Cl)c(F)cc3[nH]2)c2oc3ccccc3c2n1,"inconclusive: 11.2 µM [inhibitor, single point]"
5,CC(=O)Oc1ccc(C(=O)Nc2cccc(C(=O)NC(C)(C)C)c2)cc1,inactive
6,CCOc1ccc(N(CC(=O)Nc2ccccc2Cl)S(C)(=O)=O)cc1,active: 10 µM
7,CC(C)Oc1ccc(S(=O)(=O)N2CCOCC2)cc1NC(=O)C1CCCC1,"inconclusive: 0.891 µM [inhibitor, full curve, poor fit]"
8,CSc1nc(-c2ccc(C)cc2)[nH]c1S(=O)(=O)c1ccccc1,inactive
9,COc1ccc(/C=C2\SC(=NCc3ccccc3)NC2=O)cc1,inactive
10,N#C/C(=N\Nc1cccc(C(F)(F)F)c1)C(=O)c1ccsc1,"inconclusive: 12.6 µM [inhibitor, single point]"
11,O=c1[nH]c(/C=C/c2ccccc2F)nc2ccccc12,"inconclusive: 2.24 µM [inhibitor, full curve, poor fit]"
12,Cc1nc2sc(-c3ccccc3)cc2c(=O)[nH]1,"inconclusive: 2.82 µM [inhibitor, partial curve]"
13,Cc1nc2cc(NC(=O)Nc3nccs3)ccc2n1C,"inconclusive: 5.62 µM [inhibitor, partial curve]"
14,COc1ccc(NC(=O)Nc2ccc3c(c2)CCC3)cc1OC,inactive
15,O=C1CCc2cc(S(=O)(=O)NCc3ccccc3Cl)cc3c2N1CC3,"inconclusive: 2.82 µM [inhibitor, partial curve, poor fit]"
16,COc1ccc(C(=O)COC(=O)CN2CC(=O)Oc3ccccc32)cc1Br,inactive
17,CSCc1cccc(C(=O)OC(C)C(=O)Nc2c(C)n(C)n(-c3ccccc3)c2=O)c1 (configuration not stated),"inconclusive: 8.91 µM [inhibitor, partial curve, poor fit]"
18,O=C(/C=C/c1ccccc1)N1CCN(c2c(Cl)cccc2[N+](=O)[O-])CC1,"inconclusive: 10 µM [inhibitor, partial curve, poor fit]"
19,CCOc1cccc2sc(N(CCN(C)C)C(=O)c3cc4ccccc4cc3OC)nc12,"inconclusive: 7.94 µM [inhibitor, single point]"
20,O=C(NC(=S)Nc1nc(-c2ccc(Cl)cc2)cs1)c1cccs1,inactive
21,CC1(C)CC2CC(C)(CN2C(=O)NC(=O)c2ccccc2)C1 (configuration not stated),"inconclusive: 12.6 µM [inhibitor, partial curve, poor fit]"
22,C/C(=N\Nc1cc(C(F)(F)F)ccc1Cl)c1ccccc1O,inactive
23,Cn1cccc1/C=N\NC(=O)Cc1ccc(Br)c2ccccc12,"inconclusive: 14.1 µM [inhibitor, partial curve, poor fit]"

row,SMILES,Potency
1,O=C(O)CCSc1ccccn1,inactive
2,COc1ccc(NC(=O)N2CCC(Cc3ccccc3)CC2)cc1,"inconclusive: 1.12 µM [inhibitor, partial curve, poor fit]"
3,COc1ccc(C(C(=O)NC2CCCCC2)N(C(=O)CCl)c2ccc(OC)cc2)cc1 (configuration not stated),inactive
4,O=C(CCCN1C(=O)/C(=C\c2ccccc2)SC1=S)N1CCOCC1,"inconclusive: 8.91 µM [inhibitor, single point]"
5,COc1ccc(-c2cc(C)no2)cc1S(=O)(=O)Nc1ccccc1,"inconclusive: 3.16 µM [inhibitor, full curve]"
6,CSc1ncc(Cl)c(C(=O)Nc2cccc(Cl)c2)n1,"inconclusive: 35.5 µM [inhibitor, partial curve, poor fit]"
7,CCc1ccc(N2Cc3ccccc3C2)cc1,"inconclusive: 11.2 µM [inhibitor, partial curve]"
8,COc1ccc(-c2nc(CCl)cs2)cc1,"inconclusive: 7.94 µM [inhibitor, single point]"
9,CCOC(=O)c1c(N)sc(C(=O)OC)c1C,inactive
10,CCOC(=O)C(NCCc1ccccc1F)(NC(C)=O)C(F)(F)F (configuration not stated),inactive
11,COc1ccc(CCN2CC(C#N)=C3c4cc(OC)c(OC)cc4CCN3C2)cc1OC,"inconclusive: 12.6 µM [inhibitor, partial curve, poor fit]"
12,O=C(CCCN1C(=O)/C(=C/c2ccccc2Cl)SC1=S)N1CCCC1,"inconclusive: 3.55 µM [inhibitor, partial curve]"
13,COc1cc(CN2CCc3ccccc3C2)ccc1O,active: 2.82 µM
14,CC(=O)c1c(C)[nH]c(C(=O)C(C)Sc2nnc(NC3CC3)s2)c1C (configuration not stated),"inconclusive: 6.31 µM [inhibitor, single point]"
15,O=C(O)c1cccc(Cn2c(Cl)c(/C=N/NC(=O)c3ccccc3O)sc2=O)c1,inactive
16,CC(=O)c1ccc(NC(=O)c2sc3nc(C)c(C)c(C)c3c2N)cc1,inactive
17,O=Nc1c(O)c2ccccc2c2ccccc12,active: 5.62 µM
18,O=C(/C=C/Nc1ccccc1)c1ccc(Cl)cc1Cl,active: 10 µM
19,COc1cc(C(=O)N2CCN(c3ccc(C)cc3C)CC2)cc(OC)c1OC,active: 3.16 µM
20,COc1ccc(NC(=O)CSCC(=O)N2c3ccccc3CCc3ccccc32)cc1,"inconclusive: 10 µM [inhibitor, single point]"
21,C(=N\NC1=Nc2cccc3cccc1c23)/c1ccccn1,"inconclusive: 14.1 µM [inhibitor, single point]"
22,CN1CCN(c2ccc(Nc3ccnc4cc(Cl)ccc34)cc2)CC1,inactive
23,Brc1ccc(N/N=C(/N=Nc2nn[nH]n2)c2ccccc2)cc1,"inconclusive: 2.51 µM [inhibitor, full curve, poor fit]"

# Exported bar-delimited: 3 of the compounds above
row | SMILES | Potency
2 | COc1ccc(NC(=O)N2CCC(Cc3ccccc3)CC2)cc1 | inconclusive: 1.12 µM [inhibitor, partial curve, poor fit]
3 | COc1ccc(C(C(=O)NC2CCCCC2)N(C(=O)CCl)c2ccc(OC)cc2)cc1 (configuration not stated) | inactive
4 | O=C(CCCN1C(=O)/C(=C\c2ccccc2)SC1=S)N1CCOCC1 | inconclusive: 8.91 µM [inhibitor, single point]

# (continued)

row,SMILES,Potency
1,Cc1ccc(-n2cc(-c3ccccc3)c3c(=O)[nH]cnc32)cc1,"inconclusive: 5.62 µM [inhibitor, single point]"
2,C#CCOCCOCCOCCNc1nc(N2CCN(C(=O)CCCCCCCCCCNC(=O)[C@@H](CCSC)n3cc(CCO)nn3)CC2)nc(N2CCN(C(=O)CCCCCCCCCCNC(=O)[C@H](CCCN=C(N)N)n3cc(C[C@@H](C)CC)nn3)CC2)n1,"inconclusive: 22.4 µM [inhibitor, partial curve]"
3,CCOC(=O)c1ccc(NC(=O)CSc2nnc(NC(=O)c3ccc(S(=O)(=O)N4CCOCC4)cc3)s2)cc1,"inconclusive: 8.91 µM [inhibitor, partial curve, poor fit]"
4,Cc1ccc(S(=O)(=O)n2cc(C=O)c3ccccc32)cc1,inactive
5,CCn1c(SC(C)C(=O)O)nc2sc3c(c2c1=O)CCC3 (configuration not stated),inactive
6,CSCCC(NC(=O)c1ccc(Cl)cc1Cl)C(=O)NCC(c1cccs1)N(C)C (configuration not stated),"inconclusive: 0.501 µM [inhibitor, partial curve, poor fit]"
7,CC(C)N(C(=O)[C@H]1C[C@H](CC(=O)NCCc2ccccn2)C(=O)N2CCc3c([nH]c4cc(-c5ccco5)ccc34)[C@]12C)C(C)C,"inconclusive: 28.2 µM [inhibitor, single point]"
8,CN(c1ccccc1)S(=O)(=O)c1ccc(Cl)c(C(=O)Nc2ccncc2)c1,"inconclusive: 11.2 µM [inhibitor, partial curve, poor fit]"
9,CCOc1ccccc1CN(Cc1ccco1)S(=O)(=O)c1ccc(-n2cnnn2)c(OC)c1,"inconclusive: 2.24 µM [inhibitor, full curve, poor fit]"
10,CCOc1ccccc1NC(=S)N1CCN(c2cccc(OC)c2)CC1,"inconclusive: 28.2 µM [inhibitor, single point]"
11,CC(=O)c1c(C)[nH]c(C(=O)NNC(=O)c2ccc(C)cc2)c1C,"inconclusive: 0.891 µM [inhibitor, full curve, poor fit]"
12,C=C1C(=O)O[C@@H]2[C@H]1[C@@H](OC(=O)/C(C)=C/C)C/C(C)=C\C(=O)/C=C(\C)[C@@H]2O,"inconclusive: 1 µM [inhibitor, partial curve, poor fit]"
13,CC(=O)c1[nH]c(C)c(C(=O)N2CCCC(Nc3ccc(C(C)C)cc3)C2)c1C (configuration not stated),"inconclusive: 5.01 µM [inhibitor, single point]"
14,CCOc1ccc(/C=N/NC(=O)c2nnn(-c3nonc3N)c2-c2cccs2)cc1,inactive
15,CCOC(=O)C1CCN(CC(O)COCc2ccc3c(c2)OCO3)CC1 (configuration not stated),"inconclusive: 0.316 µM [inhibitor, full curve, poor fit]"
16,CC1(C)C2CCC1(C)C(OCC[N+](C)(C)CC(=O)OC1CCCCC1)C2 (configuration not stated),"inconclusive: 7.94 µM [inhibitor, single point]"
17,O=C(NCc1ccccc1CN1CCCC1)c1cc2ccccc2o1,"inconclusive: 3.98 µM [inhibitor, partial curve, poor fit]"
18,COc1cc(OC)cc(C(=O)Nc2nc(-c3ccccc3)c(-c3ccccc3)o2)c1,"inconclusive: 5.62 µM [inhibitor, single point]"
19,FC(F)(F)Oc1ccc(-c2cn3cccnc3n2)cc1,"inconclusive: 5.01 µM [inhibitor, partial curve]"
20,CC(C)CN(C(=O)CSc1nc2ccccc2[nH]1)C1CCS(=O)(=O)C1 (configuration not stated),inactive
21,Cc1csc(NC(=O)c2ccc[nH]c2=O)n1,"inconclusive: 11.2 µM [inhibitor, partial curve, poor fit]"
